Data source: PubChem BioAssay AID1259254 (NCATS, 2017)

- Assay: 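Finding genes that stop cells copying their DNA twice in one cycle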 (primary screen)
- System: human HCT116 colorectal cancer cells
- Reagent: single siRNA against human genes
- Time to read-out: 3 days
- Measured: 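Nuclei stained with Hoechst and imaged; cell-cycle phase assigned by DNA content; G2 share scaled per plate, non-targeting siRNA 0%, GMNN siRNA 100%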
- Direction: G2 robust z-score: higher = more G2 cells, more excess DNA replication
- Active means: 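An siRNA counts as active if its G2 robust z-score lies at least 5 MADs above the screen median; here such calls match roughly 38% of GMNN control or more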
This is an unselected part of about 59,000 deposited reagents. In the full data, about 1,550 (2.6%) are marked active. 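G2 share is only a proxy for re-replication; each gene was hit by three separate siRNAs, and active genes were retested.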 The numbers tell different reagents against one gene apart. Not all columns of the deposit are shown. No sequences are given here. The record does not give: the amount of reagent.

{"gene": "SMARCD3", "reagent no.": 1, "G2 robust z-score": -1.96, "call": "inactive"}
{"gene": "SMARCD3", "reagent no.": 2, "G2 robust z-score": -1.49, "call": "inactive"}
{"gene": "SMARCD3", "reagent no.": 3, "G2 robust z-score": 1.29, "call": "inactive"}
{"gene": "PRKAG2-AS2", "reagent no.": 1, "G2 robust z-score": -0.872, "call": "inactive"}
{"gene": "PRKAG2-AS2", "reagent no.": 2, "G2 robust z-score": 0.375, "call": "inactive"}
{"gene": "PRKAG2-AS2", "reagent no.": 3, "G2 robust z-score": 0.464, "call": "inactive"}
{"gene": "PRKAG2-AS2", "reagent no.": 4, "G2 robust z-score": -0.975, "call": "inactive"}
{"gene": "PRKAG2-AS2", "reagent no.": 5, "G2 robust z-score": -0.812, "call": "inactive"}
{"gene": "PRKAG2-AS2", "reagent no.": 6, "G2 robust z-score": 0.201, "call": "inactive"}
{"gene": "ARHGAP10", "reagent no.": 1, "G2 robust z-score": 0.0233, "call": "inactive"}
{"gene": "ARHGAP10", "reagent no.": 2, "G2 robust z-score": -0.265, "call": "inactive"}
{"gene": "ARHGAP10", "reagent no.": 3, "G2 robust z-score": 0.311, "call": "inactive"}
